According to patent publication US20250082654A1, “AZD3355 (LESOGABERAN) FOR TREATMENT AND PREVENTION OF NONALCOHOLIC STEATOHEPATITIS (NASH), LIVER FIBROSIS, AND OTHER LIVER CONDITIONS” (Icahn School of Medicine at Mount Sinai, priority 2018, published 2025):
“Also recorded” adds a separate entry of the source. At least one compound was matched to its structure with a doubt left.

Experiments:
LX-2 cells [1] = assay: Cell proliferation assay (BrdU); assay type: cell-based, human
phHSCs [2] = assay: Cell proliferation assay (BrdU); assay type: cell-based, human
LX-2 cells [3] = assay: Fibrogenic gene expression by RT-qPCR; assay type: cell-based, human
Procedure: The following fibrogenic gene expressions were quantified by RT-qPCR: • 1. Collagen1α1 (Col1α1); • 2. Alpha Smooth Muscle Actin (αSMA); • 3. Beta PDGF receptor (β-PDGFR); • 4. Transforming growth factor-β receptor1 (TGFβ-R1); • 5. Tissue inhibitor of metalloproteinase—1 (TIMP1); • 6. Tissue inhibitor of metalloproteinase—2 (TIMP2); and • 7. Matrix Metalloproteinase 2 (MMP2).
The kinase inhibitor sorafenib (7.5 μM concentration) was used as positive control and run in parallel. 150,000 LX-2 cells or 200,000 phHSCs per well were plated on 6-well plate dish. Cells were starved overnight in DMEM supplemented with 0.1% BSA (without antibiotic). Cells were then incubated with either AZD3355 or sorafenib at the indicated concentration and duration. Cells were harvested and total RNA was extracted using RNeasy Mini Kit (Qiagen, CA). 0.5 μg of total RNA was used for reverse transcription with ‘RNA to cDNA EcoDry Premix (Double Primed) Kit’ (Clontech, CA). Expression of fibrogenic genes were measured by qPCR using custom designed primers (Sigma-Aldrich, MO) and iQ SYBR Green Supermix (Bio-Rad, CA) on a LightCycler 480 II (Roche Diagnostics Corporation, IN) instrument. Glyceraldehyde-3-phosphate dehydrogenase (GAPDH), […] (RPII), α-tubulin and β-actin genes were tested to determine the best fit for housekeeping gene of the study. […]

phHSCs [4] = assay: Fibrogenic gene expression by RT-qPCR; assay type: cell-based, human
LX-2 cells [5] = assay: Fibrogenic protein expression by western blot and densitometry from cell lysate; assay type: cell-based, human; conditions: LX2 cells, 48 or 72 hours, 30 nM or 100 nM AZD3355 or sorafenib
Procedure: (§1) Western blot and RT-qPCR experiments were run in parallel. 150,000 LX-2 cells or 200,000 phHSCs per well were plated on a 6-well plate dish. Cells were starved overnight in DMEM supplemented with 0.1% BSA (without antibiotic). Cells were then incubated with either AZD3355 or sorafenib at the indicated concentration and duration. Cells were harvested and lysed using RIPA buffer (50 mM Tris-HC1 pH8.0, 150 mM NaCl, 1% IGEPAL, 0.5% sodium deoxycholate and 0.1% SDS) along with Pierce Protease Inhibitor Mini Tablets, EDTA-Free (ThermoScientific, IL). Total protein was measured by Bradford colorimetric assay using Protein Assay Dye Reagent Concentrate (Bio-Rad, CA). […] After hybridized with HRP conjugated secondary antibody (either Goat anti-rabbit HRP (Jackson ImmunoResearch Laboratories, PA) or anti-mouse IgG-HRP (Cell Signaling Technology, MA) the membrane was treated with Immobilon Western Chemiluminescent HRP substrate (Millipore, MA) and the signals were captured with Amersham Imager 6000 (GE Healthcare, PA). 210 kD of Col1α1, 72 kD of MMP2 and 42 kD of α-SMA bands were recognized by respective antibody. 37 kD band of GAPDH was probed as loading control. For densitometric measurement of the protein bands, images were exported and analyzed using ImageJ 1.50 f software and bands were normalized to the loading control, GAPDH.

phHSCs [6] = assay: as above; assay type: cell-based, human; conditions: 48 or 72 hours
Procedure: as §1

LX-2 cells [7] = assay: Secreted Col1α1 protein measurement by ELISA; assay type: cell-based, human; conditions: 48 and 72 hours
phHSCs [8] = assay: Secreted Col1α1 protein measurement by ELISA; assay type: cell-based, human; conditions: 100 nM, 48 hours
LX-2 cells [9] = assay: αSMA protein expression by immunocytochemistry; assay type: cell-based, human; conditions: 30 or 100 nM, 48 or 72 hours, vs vehicle control
phHSCs [10] = assay: αSMA protein expression by immunocytochemistry; assay type: cell-based, human; conditions: 30 or 100 nM, 48 or 72 hours, vs vehicle control
human liver slices = assay: Liver slice assay, quantitative PCR; assay type: cell-based; conditions: 24 hours
[11] = NASH mouse model, body weight; assay type: in vivo, mice; conditions: 30 mg/kg; male from second week, female from third week of treatment
Procedure: The experimental protocol was reviewed and approved by the Institutional Animal Care and Use Committee (IACUC) at Icahn School of Medicine at Mount Sinai, NY. Male and Female C57BL/6J mice (age: 6 weeks; weight: 20-25 g) were purchased from Jackson Laboratories (Farmington, CT). Animals were housed in a 12 hours light—12 hours dark cycle in the animal facility at Icahn School of Medicine at Mount Sinai, NY and handled following guidelines for the care and use of laboratory animals. Male and female mice were maintained in separate cages.
Carbon tetrachloride (CC14) was purchased from Sigma-Aldrich, MO. CC14 was freshly dissolved in corn oil at final concentration of 5% before injection. […]
Western diet containing 21.2% fat (42% Kcal), 41% sucrose and 1.25% cholesterol by weight was purchased from Envigo, WI (Teklad Custom diet Cat #TD.120528). […] During change of food and water we have been measured the amount of food and water intake and the data was collected.
Four separate groups of mice were given either 0.5% methylcellulose (as Vehicle) or AZD3355 at 10 mg/kg (low dose) body weight of mice or 30 mg/kg (high dose) body weight of mice by twice daily (BID (5 days/week)) and OCA at 30 mg/kg body weight of mice by daily (QD (5 days/week)) through oral route for up to next 12 weeks (week 13 to week 24). […] All animals were closely monitored the health conditions and behavior.

NASH model mice [12] = assay: NASH mouse model, tumor development in the liver; assay type: in vivo; conditions: male and female NASH model mice; AZD3355 at either dose, OCA 30 mg/kg
NASH model mice [13] = assay: NASH mouse model, liver and spleen weight; assay type: in vivo; conditions: male and female NASH model mice, both dosages
NASH model mice [14] = assay: NASH mouse model, liver enzymes and lipid panel analysis; assay type: in vivo; conditions: male and female NASH model mice, 12 weeks treatment
NASH model mice [15] = assay: NASH mouse model, fibrogenic gene expression in liver tissue by RT-qPCR; assay type: in vivo; conditions: AZD3355 at both dosages, OCA
NASH model mice [16] = assay: NASH mouse model, fibrogenic protein expression in liver tissue by western blot; assay type: in vivo; conditions: male and female NASH mice
NASH model mice [17] = assay: NASH mouse model, picrosirius red/fast green staining and morphometric measurement of collagen; assay type: in vivo
NASH model mice [18] = assay: NASH mouse model, histopathological scoring of liver sections; assay type: in vivo
Procedure: Four separate groups of mice were given either 0.5% methylcellulose (as Vehicle) or AZD3355 at 10 mg/kg (low dose) body weight of mice or 30 mg/kg (high dose) body weight of mice by twice daily (BID (5 days/week)) and OCA at 30 mg/kg body weight of mice by daily (QD (5 days/week)) through oral route for up to next 12 weeks (week 13 to week 24). Them last group of mice were not given any drug or vehicle treatment, as No Tx—24 weeks and maintained in parallel with treatment/vehicle groups. Usually all doses were given at early morning and the second daily dose of AZD3355 at evening (10 hours of intervals). All animals were closely monitored the health conditions and behavior. […]
Steatosis, hepatocyte ballooning, lobular inflammation, portal inflammation and fibrosis of picroserious red/fast green and H&E stained liver section were scored according to the NASH Clinical Research Network (NASH CRN) scoring system in a blinded fashion by an expert hepato-pathologist in Icahn School of Medicine at Mount Sinai. NAFLD activity score (NAS) was calculated according to Brunt criteria and range from 0-8. NAS was calculated by the sum of scores of steatosis (0-3), hepatocyte ballooning (0-2) and lobular inflammation (0-3). […] Fibrosis (0-4) or portal inflammation (0-3) scores were assessed separately and not included in NAS.

SMILES: NC[C@@H](F)C[PH](=O)O [AZD3355, [(2R)-3-amino-2-fluoropropyl] phosphinic acid]
- cellular proliferation (LX-2 cells [1]): no significant changes in cellular proliferation
- cellular proliferation (phHSCs [2]): no significant changes in cellular proliferation
- gene expression of pro-fibrogenic genes Col1α1, αSMA, βPDGF-R, TGFβ-R1, TIMP1, TIMP2, MMP2 (LX-2 cells [3]; 48 and 72 hours): downregulated
- fibrogenic gene expression after drug withdrawal (LX-2 cells [3]; drug free media for an additional 48 or 72 hours): rescued
- expression of βPDGF-R, TGFβ-R1 and TIMP1 (phHSCs [4]; 30 nM, 48 hours): downregulated
- expression of all pro-fibrogenic genes except TIMP1 and TIMP2 (phHSCs [4]; 72 hours (30 nM per FIG. 12)): significantly down-regulated; also recorded: downregulated
- protein expression of Col1α1 (western blot) (LX-2 cells [5]): no change
- protein expression of Col1α1 (western blot) (phHSCs [6]): no change
- secreted Col1α1 in culture media (ELISA) (LX-2 cells [7]): reduction
- secreted Col1α1 in culture media (ELISA) (phHSCs [8]): reduction
- αSMA protein expression (immunocytochemistry) (LX-2 cells [9]): reduced expression; also recorded: Recused expression
- αSMA protein expression (immunocytochemistry) (phHSCs [10]): Reduced expression
- pro-fibrotic genes expression (at least one gene, in most of the ten samples) (human liver slices): down-regulated
- body weight compared to vehicle treated mice [11]: significant reduction
- tumor development in the liver (NASH model mice [12]): reduced
- liver weight, liver/body weight ratio, and spleen weight (NASH model mice [13]): improved
- necro-inflammatory activity (liver enzymes) (NASH model mice [14]): improved
- gene expression of the profibrotic genes in liver (NASH model mice [15]): reduced
- protein expression of both Col1α1 and αSMA in liver (NASH model mice [16]): reduced
- total fibrosis and hepatic collagen accumulation (NASH model mice [17]; male and female NASH mice): reduced
- dose dependence of reduction of fibrosis and collagen accumulation (NASH model mice [17]; male mice): dose dependent
- NAFLD activity (NAS) (NASH model mice [18]; NASH model mice): indicated towards the reduction
- fibrosis and steatohepatitis (histopathological scores) (NASH model mice [18]; male and female NASH model mice): indicated towards the reduction
